These are yes or no findings as the source states them, for the method shown. Binding seen in cells or lysates may run through a third protein. Some entries that bind do so weakly or less than the wild type.

Amino acid sequences for entries named in this document (tags omitted).
UniProt Q8IU85: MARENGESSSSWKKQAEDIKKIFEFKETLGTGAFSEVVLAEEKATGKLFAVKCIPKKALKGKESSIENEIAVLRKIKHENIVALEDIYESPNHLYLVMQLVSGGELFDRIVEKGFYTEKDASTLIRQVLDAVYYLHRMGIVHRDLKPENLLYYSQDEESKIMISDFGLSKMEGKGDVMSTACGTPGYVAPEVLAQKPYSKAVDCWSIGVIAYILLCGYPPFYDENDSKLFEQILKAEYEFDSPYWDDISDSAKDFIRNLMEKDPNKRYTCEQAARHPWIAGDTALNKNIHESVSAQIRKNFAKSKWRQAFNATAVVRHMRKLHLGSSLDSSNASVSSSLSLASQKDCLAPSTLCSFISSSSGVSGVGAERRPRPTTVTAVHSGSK
UniProt P16220: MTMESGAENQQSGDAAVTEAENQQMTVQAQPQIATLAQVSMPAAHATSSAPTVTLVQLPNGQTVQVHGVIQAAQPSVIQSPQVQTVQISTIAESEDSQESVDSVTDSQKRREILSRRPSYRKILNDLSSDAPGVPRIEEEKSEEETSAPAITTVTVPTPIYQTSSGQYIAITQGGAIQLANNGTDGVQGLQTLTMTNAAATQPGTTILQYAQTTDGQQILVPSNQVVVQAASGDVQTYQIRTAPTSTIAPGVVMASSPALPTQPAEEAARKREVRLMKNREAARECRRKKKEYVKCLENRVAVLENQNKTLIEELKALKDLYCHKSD

The target in experiment [1] is CAMK1D (UniProt Q8IU85). Nature of the experiment: co-IP; Pierce Co-IP Kit; LNCaP-ENZR and C4-2B-ENZR cell lysates; immunocomplexes analysed by western blot with Flag and CREB antibodies.
Experiment [2] deals with cyan fluorescent protein (CFP)-CAMK1D (UniProt Q8IU85). Nature of the experiment: FRET or BRET; HEK293T cells co-transfected with CFP and YFP fusions, fixed with 4% paraformaldehyde after 24 h; acceptor photobleaching, confocal microscope.

For the substance CREB (from UniProt P16220 1-327), the binding result in experiment [1] is given as “binds”. Turning to “yellow fluorescent protein (YFP)-CREB (from UniProt P16220 1-327)”, in experiment [2], the binding entry is given as “binds”.

The values above are taken from publication PMC12775825.
